Results on 60 compounds are retold here after PubChem BioAssay AID2685 (National Center for Advancing Translational Sciences (NCATS), 2010).

The nature of this experiment: qHTS Assay for Lipid Storage Modulators in Drosophila S3 Cells.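 For cell number change: cells counted by Cell Tracker Red CMTPX staining in the red channel.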 The settings on record: BODIPY lipid droplet fluorescence, 18-24 h; for cell number change: measured here: cell count max response, cells fed with added oleic acid. Put shortly:
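Drosophila S3 cells loaded with oleic acid (400 uM, as added) and compounds at several concentrations; lipid droplets imaged by 488-nm laser-scanning cytometry, 500–530 nm intensity and object ratio to cell channel. Percent activity normalized to 20 uM Triacsin C.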
In general terms: qHTS replaces the single test concentration by a dilution series.

The mark [1] stands for this setting: measured here: lipid fluorescence (Fed channel) AC50, cells fed with added oleic acid.
The mark [2] stands for this setting: measured here: cell number channel AC50, cells fed with added oleic acid.

Some of the results follow. Further columns of the screen follow, without active or inactive calls. The list favours compounds with an active or inconclusive main result. The note in brackets gives the kind of curve behind each potency; many fits are weak.

With `CN(C)C(CNC(=O)c1cc2ccccc2oc1=O)c1ccccc1` (stereo not given), the cell number change worked out at 14.1%. Further, the AC50 (commonly the midpoint of the concentration-response curve, whichever way the signal moves) under setting [1] was 1.3 µM [rising, full curve].
For `CC1CCc2c(sc(NC(=O)c3ccc(Cn4cc(Br)cn4)o3)c2C(N)=O)C1` (stereo not given), the cell number change was 107%. Further, the AC50 under setting [2] is 2.91 µM [rising, full curve]. For the same compound, the AC50 under setting [1] is 3.26 µM [rising, full curve].
With `O=C(N[C@@H]1CCC(=O)N(CC[C@H](Oc2ccccc2)c2ccccc2)CC1)OCc1ccccc1`, the cell number change is -27.5%.
Consider `Cc1ccc(OCCn2cnc3cc([N+](=O)[O-])ccc3c2=O)cc1`, for which the cell number change worked out at 46%. The AC50 under setting [2] is 10.3 µM [rising, partial curve, poor fit].
With `CCOc1ccc2[nH]c3c(NCC(C)C)ncnc3c2c1`, the cell number change is -38.3%. For the same compound, under setting [2], the AC50 was 29.1 µM [falling, single point]. Besides, the AC50 under setting [1] is 29.1 µM [falling, single point].
With `COc1cc(-c2nc(CN3CCCCC3CCNC(C)=O)c(C)o2)ccc1F` (stereo not given), the cell number change was -7.95%. In addition, under setting [1], the AC50 was 4.61 µM [falling, single point].
Regarding `C=CCn1c(=O)/c(=C2/Sc3cc(OC)ccc3N2C)s/c1=C1\C(=O)N(CC)C(=S)N1C`, the cell number change is -50%. Moreover, the AC50 under setting [2] was 20.6 µM [falling, partial curve]. In addition, the AC50 under setting [1] is 1.64 µM [falling, partial curve].
As for `Cc1ccc(S(=O)(=O)CCC(=O)OCn2nnc3ccccc3c2=O)cc1`, the cell number change was -8.27%.
For `COc1nc(-c2ccc(C)cc2)ccc1-c1noc(-c2cccnc2)n1`, the cell number change amounted to 1.7%. For the same compound, under setting [1], the AC50 is 6.51 µM [rising, single point].
In the case of `CCCCN1C(=O)/C(=C2/Sc3ccccc3N2C)S/C1=N\c1ncn[nH]1`, the cell number change was -64.2%. Also, the AC50 under setting [2] is 13 µM [falling, partial curve]. In addition, under setting [1], the AC50 is 29.1 µM [falling, partial curve, poor fit].
Consider `CCOc1ccc(CNC(=S)N/N=C/c2cccnc2)cc1`, for which the cell number change is -37.2%. For the same compound, under setting [2], the AC50 is 29.1 µM [falling, single point]. For the same compound, the AC50 under setting [1] was 6.51 µM [rising, single point].
As to `O=C(NCc1ccccc1)c1ccc2c(c1)C(=O)N(Cc1ccncc1)C2=O`, the cell number change worked out at 131%. For the same compound, under setting [2], the AC50 is 20.6 µM [rising, single point].
In the case of `CCCCn1c(N)c(N(CC(C)C)C(=O)c2cccc(S(=O)(=O)N3CCN(C)CC3)c2)c(=O)[nH]c1=O`, the cell number change came to 14%. The AC50 under setting [1] is 4.11 µM [falling, partial curve, poor fit].
Consider `Cc1ccc2nc(N3CCN(c4ccccc4F)CC3)c(C=O)c(=O)n2c1`, for which the cell number change is 14%. In addition, the AC50 under setting [1] is 0.0058 µM [rising, full curve, poor fit].
Regarding `CCCNC(=O)C(Cc1ccc(Br)cc1)NC(=O)c1ccc(C#N)cc1` (stereo not given), the cell number change was 3.31%. Besides, the AC50 under setting [2] is 0.92 µM [falling, full curve]. For the same compound, the AC50 under setting [1] was 1.16 µM [falling, full curve].
With `O=C(NCc1ccc2c(c1)OCO2)c1nc(S(=O)(=O)Cc2ccccc2F)ncc1Cl`, the cell number change is -25.4%. Besides, under setting [1], the AC50 is 3.66 µM [falling, full curve].
Regarding `CCCCOc1ccccc1NC(=O)CC1Nc2ccccc2NC1=O` (stereo not given), the cell number change was -2.41%.
Turning to `COc1cc(C(=O)COC(=O)c2cnc(C)cn2)ccc1OC(F)F`, the cell number change is -46%. Moreover, under setting [2], the AC50 is 18.4 µM [falling, partial curve, poor fit]. Besides, the AC50 under setting [1] is 29.1 µM [rising, single point].
Turning to `COc1cc(NC(=O)Cn2ncc(Cl)c(Cl)c2=O)c(C)cc1[N+](=O)[O-]`, the cell number change was -21.4%.
For `O=C1c2ccccc2OC2(C=Cc3ccccc3O2)N1Cc1ccccc1` (stereo not given), the AC50 was 2.59 µM [rising, single point] under setting [2] and 4.11 µM [rising, single point] under setting [1].
Take `COCCN(C(=O)c1ccc(-c2ccc(Cl)cc2)o1)c1c(N)n(Cc2ccccc2)c(=O)[nH]c1=O`: the cell number change was determined as 62.9%. In addition, the AC50 under setting [2] is 29.1 µM [rising, single point].
With `O=C(CSc1nc2nccnc2c(=O)n1Cc1cccs1)Nc1ccccc1F`, the AC50 under setting [1] is 0.58 µM [falling, single point].
With `COc1cc(CNC2CCCC2)cc(Cl)c1OCc1ccccc1F`, the cell number change was found to be 38.8%. In addition, the AC50 under setting [2] was 29.1 µM [rising, single point].
Take `CN1C(=O)N(CC(=O)N2CCN(S(=O)(=O)/C=C/c3ccccc3)CC2)C(=O)C12CCCCC2`: the cell number change is -4.92%. Also, the AC50 under setting [1] was 29.1 µM [rising, single point].
As for `O=C(/C=C/c1ccc([N+](=O)[O-])cc1)N1CCN(Cc2ccccc2)CC1`, the cell number change was -22.3%.
Regarding `O=Nc1c(O)[nH]c2ccc(F)cc12`, the cell number change is -32.2%. The AC50 under setting [2] was 2.59 µM [falling, full curve]. Further, the AC50 under setting [1] is 29.1 µM [falling, single point].
Take `C=C(C)CNc1cc(S(=O)(=O)N2CCOCC2)ccc1Oc1ccccc1`: the cell number change is 3.5%. Also, the AC50 under setting [1] is 0.731 µM [falling, full curve, poor fit].
For the compound `CCCNC(=O)c1ccc(N2CCC3(CC2)CC(c2cccc(Br)c2)=NO3)c(NC(=O)c2c(Cl)cccc2Cl)c1`, the cell number change amounted to 20.2%. Moreover, the AC50 under setting [1] is 23.1 µM [rising, single point].
For the compound `CCOC(=O)c1cc(C#N)c(N2CCCC2)nc1-c1ccccc1`, the cell number change is -12.7%.
Take `Cc1nc(=O)c(-c2ccccc2)c(C)n1-c1ccc(C(=O)O)cc1`: the AC50 is 0.517 µM [falling, full curve] under setting [2] and 0.103 µM [falling, full curve, poor fit] under setting [1].
Regarding `Cc1ccc2c(C)c(C(=O)N(C)Cc3ccncn3)oc2c1C`, the cell number change was determined as 9.48%. For the same compound, the concentration at half-maximal activity (AC50) under setting [1] is 29.1 µM [rising, single point].
Consider `Clc1ccc(CSc2nnc(-c3c[nH]c4ccccc34)o2)cc1`, for which the cell number change was -64.9%. Besides, under setting [2], the AC50 was 29.1 µM [falling, single point].
For `O=C(c1ccco1)N1CCN(C(=O)c2cc(-c3ccccc3)nc3ccccc23)CC1`, under setting [1], the AC50 was 6.51 µM [falling, single point].
Consider `CCN(CC)CCCC1(CN)OCCc2ccccc21` (stereo not given), for which the cell number change is -11.8%. The AC50 under setting [1] is 16.4 µM [falling, partial curve, poor fit].
As for `CC(=O)c1ccc(Oc2cc(C)nc(NCc3ccccc3)n2)cc1`, the AC50 under setting [1] was 0.0731 µM [falling, full curve, poor fit].
As to `O=C(CSCc1ccccc1)NCc1ccc2c(c1)OCO2`, the cell number change was determined as 75%. Besides, under setting [2], the AC50 was 20.6 µM [rising, partial curve]. Moreover, the AC50 under setting [1] was 4.11 µM [rising, partial curve].
As for `Cc1ccc(NC(=O)C2CCCN(C(=O)Nc3ccc(F)cc3)C2)cc1` (stereo not given), the cell number change came to 18.8%.
In the case of `O=S(=O)(NCC1CCCO1)c1ccc2c(c1)OCCO2` (stereo not given), the cell number change is -101%. Further, the AC50 under setting [2] was 32.6 µM [falling, partial curve]. For the same compound, the AC50 under setting [1] was 0.651 µM [falling, single point].
Turning to `CCOc1cccc(-c2c(C(=O)N/N=C(\C)c3cccs3)nnn2-c2nonc2N)c1`, the cell number change is -22.4%. The AC50 under setting [1] is 29.1 µM [rising, single point].
Consider `Cc1ccccc1NC(=O)OCc1ccccc1`, for which the cell number change was found to be 16.1%. Under setting [1], the AC50 was 29.1 µM [rising, single point].
As for `Cn1c(=O)oc2cc(S(=O)(=O)N3CCC(C(=O)NCc4ccc(F)cc4)CC3)ccc21`, the cell number change amounted to 9.56%.
For `Clc1ccccc1Nc1c2c(nc3ncnn13)CCC2`, the cell number change was determined as 13.4%. Besides, the AC50 under setting [1] is 0.259 µM [rising, full curve].
`O=C(COC(=O)C1CC(=O)N(Cc2ccccc2)C1)Nc1ccc(Cl)cc1F` (stereo not given): the cell number change is -35.8%. Moreover, the AC50 under setting [1] is 1.46 µM [falling, partial curve].
Take `COc1ccc(CCC(=O)NCCS(=O)(=O)N2CCN(c3ccc(F)cc3)CC2)cc1`: the cell number change was -15.3%. Further, the AC50 under setting [1] is 13 µM [falling, partial curve].
As to `Nc1c(Cl)ncnc1NCCc1ccc(O)cc1`, the cell number change was -38.7%. The AC50 under setting [2] is 11.6 µM [falling, partial curve]. For the same compound, the AC50 under setting [1] is 0.146 µM [falling, full curve, poor fit].
Turning to `CCOc1ccc(NC(=O)CN(C)C(=O)Cc2sc(C)nc2-c2ccc(F)cc2)cc1OCC`, the cell number change is 12.3%. For the same compound, the AC50 under setting [1] is 0.326 µM [rising, full curve].
`COc1ccc(-c2nc(-n3c(C)c(C(C)=O)c(C(C)=O)c3C)sc2C)cc1`: the cell number change is -10.1%.
Regarding `Cc1ccc(N2CCN(C(=O)c3ccccc3NC(=O)/C=C\C(=O)O)CC2)cc1`, the cell number change was -18.1%.
Regarding `Cc1ccc(N2C(=O)C3C4C=CC(CC4)C3C2=O)cc1Br` (stereo not given), the cell number change is -6.93%.
`Cc1ccc(NC(=O)N(Cc2cccs2)Cc2cc3cc4c(cc3[nH]c2=O)OCO4)cc1`: the cell number change turned out to be 7.1%. Further, the AC50 under setting [1] is 0.411 µM [rising, full curve, poor fit].
Turning to `CCCCN(C)CCNC(=O)c1ccc2c(c1)NC(=O)C(N1CCCCC1)S2` (stereo not given), the cell number change was 7.28%.
On to `CC(=O)C1=C(O)C(=O)N(CCCN2CCOCC2)C1c1ccccc1[N+](=O)[O-]` (stereo not given), for which the cell number change turned out to be 18.4%. For the same compound, under setting [1], the AC50 was 0.13 µM [rising, full curve, poor fit].
Consider `O=C(Cn1cnc2ccc(Cl)cc2c1=O)c1cccs1`, for which the cell number change is -10.3%. For the same compound, under setting [1], the AC50 was 1.64 µM [falling, full curve, poor fit].
Consider `COc1ccc(CCNS(=O)(=O)CCNC(=O)c2ccccc2)cc1`, for which the AC50 under setting [1] is 6.51 µM [rising, single point].
For `Cn1ncc([N+](=O)[O-])c1C(=O)Nc1ccc(Cl)cc1`, the cell number change worked out at 2.84%. Also, the AC50 under setting [1] is 3.26 µM [rising, single point].
`O=C(NC1(C(F)(F)F)N=C(c2ccccc2)NC1=O)c1ccc(Cl)cc1Cl` (stereo not given): the cell number change was -16%. Moreover, the AC50 under setting [1] is 20.6 µM [falling, single point].
For `CCCCn1cc2c(c1-c1cccc(C)c1)c(=O)n(C)c(=O)n2C`, the cell number change is -1.49%.
Turning to `CC(C)(C)NC(=S)NNC(=O)c1cccc(Br)c1`, the cell number change was 45.7%. Also, the AC50 under setting [2] was 14.6 µM [rising, partial curve, poor fit].
As for `Cc1cc(C)nc(NS(=O)(=O)c2ccc(NC(=O)Cc3ccccc3F)cc2)n1`, the cell number change turned out to be 1.28%. In addition, the AC50 under setting [1] is 5.17 µM [rising, single point].
With `COc1ccc(NCC(=O)Nc2ccccc2C#N)cc1Cl`, the cell number change came to 7.96%. Moreover, the AC50 under setting [2] was 1.84 µM [falling, partial curve, poor fit]. Further, the AC50 under setting [1] is 6.51 µM [falling, single point].
